Experimental data: PubChem BioAssay AID652243 (Drosophila RNAi Screening Center, 2013)
Assay: 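Fly regulators of androgen-dependent reporter output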 (primary screen). System: Drosophila S2R+ cells. Knock-down reagent: long dsRNA against Drosophila genes. Time to read-out: 72 h (48 h, then 24 h hormone). Conditions: synthetic androgen R1881 at 10 nM for 24 h. Measured: 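Per-well raw luminescence of the androgen-driven firefly reporter and of the Renilla control, two replicates each, without normalisation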. Reading the numbers: firefly reporter light: higher = more light from androgen-responsive reporter; Renilla control light: higher = more constitutive control signal (cell number, transfection). Rule for the call: 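Hit when the log firefly-to-Renilla ratio dropped or increased by a fixed fold versus the mean of GFP or LacZ controls across duplicate plates; lowering cut given as 1.5 and as 3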. Meaning of the calls: active = hit: reporter lowered or raised; inactive = no hit.
The deposit covers about 24,000 reagents; below is a random part of those that have a named target and a result. In the full data, 246 (1%) got an active call. 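Plates not normalised; calls are printed but the firefly/Renilla ratio behind them is not deposited; fold cut for lowering reported inconsistently.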 The raw values are shown without normalisation. A plus sign joins genes that one reagent is predicted to hit. Not given: the amount of reagent.

predicted target | amplicon | firefly reporter light, replicate 1 | firefly reporter light, replicate 2 | Renilla control light, replicate 1 | Renilla control light, replicate 2 | outcome
CG14855 | DRSC14979 | 2.22e5 | 1.90e5 | 2.57e6 | 2.75e6 | inactive
CG14855 | DRSC27350 | 5.38e5 | 5.41e5 | 9.22e5 | 9.63e5 | inactive
CG14855 | DRSC39068 | 1.02e6 | 8.30e5 | 2.27e6 | 2.00e6 | inactive
Gabat | DRSC10846 | 1.34e5 | 1.60e5 | 1.64e6 | 1.52e6 | inactive
CG14694 | DRSC14917 | 70751 | 1.03e5 | 1.71e6 | 1.99e6 | inactive
alpha-Spec | DRSC08704 | 9.54e5 | 1.07e6 | 2.25e6 | 2.59e6 | inactive
CenB1A | DRSC16923 | 7.55e5 | 8.86e5 | 1.74e6 | 1.70e6 | inactive
CenB1A | DRSC28028 | 8.30e5 | 4.70e5 | 1.31e6 | 7.53e5 | inactive
CG13390 | DRSC02261 | 2.14e5 | 1.52e5 | 1.88e6 | 1.25e6 | inactive
CG13390 | DRSC24783 | 7.67e5 | 1.07e6 | 8.66e5 | 8.43e5 | inactive
CG13390 | DRSC39014 | 2.78e5 | 2.12e5 | 1.03e6 | 9.54e5 | active
BBS4 | DRSC06352 | 4.10e5 | 4.01e5 | 2.55e6 | 3.53e6 | inactive
BBS4 | DRSC28073 | 5.41e5 | 5.41e5 | 8.57e5 | 9.81e5 | inactive
CG31717 | DRSC01121 | 1.55e5 | 1.40e5 | 5.43e5 | 4.89e5 | inactive
vis + achi | DRSC07277 | 9.70e5 | 8.29e5 | 1.53e6 | 1.55e6 | inactive
msd1 | DRSC08383 | 86013 | 1.34e5 | 1.56e6 | 1.60e6 | inactive
fon | DRSC02507 | 9.59e5 | 7.41e5 | 1.35e6 | 1.34e6 | inactive
kat80 | DRSC20344 | 4.26e5 | 4.25e5 | 2.56e6 | 3.06e6 | inactive
kat80 | DRSC20345 | 4.06e5 | 3.42e5 | 2.81e6 | 2.10e6 | inactive
CG5535 | DRSC10514 | 84257 | 61575 | 5.12e5 | 5.88e5 | inactive
CG5535 | DRSC29215 | 7.44e5 | 5.08e5 | 1.86e6 | 1.87e6 | inactive
Cpr64Ab | DRSC08461 | 2.67e5 | 2.75e5 | 1.80e6 | 2.02e6 | inactive
Cpr64Ab | DRSC25195 | 6.45e5 | 6.29e5 | 8.14e5 | 6.85e5 | inactive
bsf | DRSC02035 | 7.29e5 | 1.21e6 | 1.26e6 | 1.29e6 | inactive
CG10026 | DRSC02010 | 2.12e5 | 2.52e5 | 1.87e6 | 1.35e6 | inactive
Nup37 | DRSC14419 | 1.82e5 | 2.60e5 | 2.20e6 | 2.36e6 | inactive
Pss | DRSC11757 | 2.66e5 | 2.03e5 | 2.18e6 | 2.82e6 | inactive
DhpD | DRSC12288 | 45019 | 51359 | 3.17e5 | 4.33e5 | inactive
CG5026 | DRSC10470 | 1.09e6 | 7.15e5 | 1.46e6 | 1.74e6 | inactive
CG5026 | DRSC36891 | – | – | – | – | inactive
CG5026 | DRSC36892 | – | – | – | – | inactive
Ca-beta | DRSC02406 | 1.43e5 | 2.08e5 | 1.11e6 | 1.25e6 | inactive
Ca-beta | DRSC02407 | 2.76e5 | 3.56e5 | 1.12e6 | 1.55e6 | inactive
Ca-beta | DRSC03285 | 2.95e5 | 2.30e5 | 2.32e6 | 2.75e6 | inactive
Ca-beta | DRSC21432 | 6.16e5 | 5.98e5 | 2.08e6 | 1.77e6 | inactive
Ca-beta | DRSC23813 | 9.66e5 | 1.00e6 | 1.04e6 | 1.01e6 | inactive
Ca-beta | DRSC38975 | 9.27e5 | 7.29e5 | 2.30e6 | 1.95e6 | inactive
Oseg2 | DRSC08343 | 58063 | 1.17e5 | 8.88e5 | 1.39e6 | inactive
kappaB-Ras + CG30503 | DRSC06619 | 3.65e5 | 1.63e5 | 1.98e6 | 9.70e5 | inactive
kappaB-Ras + CG30503 | DRSC07636 | 5.64e5 | 4.05e5 | 2.49e6 | 2.08e6 | inactive
kappaB-Ras + CG30503 | DRSC25537 | 5.32e5 | 5.69e5 | 5.49e5 | 5.00e5 | inactive
CG34427 | DRSC09978 | 1.36e5 | 2.05e5 | 2.05e6 | 2.24e6 | inactive
r-l | DRSC17042 | 3.14e5 | 3.51e5 | 1.83e6 | 2.23e6 | inactive
r-l | DRSC22784 | 5.29e5 | 8.82e5 | 9.60e5 | 1.44e6 | inactive
Myb | DRSC20260 | 53935 | 61234 | 5.38e5 | 4.40e5 | inactive
Drice | DRSC16715 | 80360 | 97019 | 1.01e6 | 8.63e5 | inactive
Drice | DRSC27804 | 2.07e5 | 2.06e5 | 5.14e5 | 8.04e5 | inactive
CG14316 | DRSC14795 | 53522 | 1.07e5 | 8.55e5 | 9.75e5 | inactive
CG11865 | DRSC01872 | 1.71e5 | 2.46e5 | 1.94e6 | 2.32e6 | inactive
CG11865 | DRSC28173 | 4.95e5 | 3.85e5 | 1.61e6 | 1.69e6 | inactive
asRNA:CR42743 + CG34162 | DRSC01190 | 7.85e5 | 7.53e5 | 1.51e6 | 9.83e5 | inactive
pcm | DRSC20361 | 1.42e5 | 1.61e5 | 9.28e5 | 7.80e5 | inactive
CG13192 | DRSC06317 | 1.74e5 | 1.25e5 | 1.18e6 | 1.14e6 | inactive
Or1a | DRSC18689 | 3.35e5 | 3.43e5 | 3.73e6 | 3.19e6 | inactive
CG10874 | DRSC00297 | 91732 | 56541 | 6.65e5 | 5.48e5 | inactive
CG10874 | DRSC26108 | 3.03e5 | 3.08e5 | 7.36e5 | 4.31e5 | inactive
Eph | DRSC17164 | 2.06e5 | 3.45e5 | 3.21e6 | 2.84e6 | inactive
Eph | DRSC36767 | – | – | – | – | inactive
Eph | DRSC36768 | – | – | – | – | inactive

Part of the list above, showing only “Renilla control light, replicate 1”.
CG14855 [DRSC14979]	2.57e6
CG14855 [DRSC27350]	9.22e5
CG14855 [DRSC39068]	2.27e6
Gabat [DRSC10846]	1.64e6
CG14694 [DRSC14917]	1.71e6
alpha-Spec [DRSC08704]	2.25e6
